Data: article PMC10978903

T1: Flag-GR50-GFP (poly-glycine-arginine, 50 repeats), lentiviral construct in rat cortical neurons
T1 sequence: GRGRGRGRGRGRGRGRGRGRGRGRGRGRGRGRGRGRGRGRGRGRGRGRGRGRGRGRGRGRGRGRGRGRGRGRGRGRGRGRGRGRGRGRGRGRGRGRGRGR

B1: Flag-GR50-GFP (poly-glycine-arginine, 50 repeats), lentiviral construct in rat cortical neurons (protein)
chain: GRGRGRGRGRGRGRGRGRGRGRGRGRGRGRGRGRGRGRGRGRGRGRGRGRGRGRGRGRGRGRGRGRGRGRGRGRGRGRGRGRGRGRGRGRGRGRGRGRGR

Legend:
[1] = target: T1, Flag-GR50-GFP (poly-glycine-arginine, 50 repeats), lentiviral construct in rat cortical neurons; assay: co-IP; anti-FLAG M2 agarose beads (mouse IgG agarose beads as control); 600 μg lysate of rat cortical neurons in IP buffer (50 mM Tris-HCl pH 7.5, 150 mM NaCl, 0.5% NP-40), 4 °C, 24 h; western blot
[2] = target: T1, Flag-GR50-GFP (poly-glycine-arginine, 50 repeats), lentiviral construct in rat cortical neurons; assay: co-IP; anti-GFP antibody cross-linked to magnetic beads; lysates of rat cortical neurons transduced with GR50 or GFP; neurons treated with the crosslinker DSP (0.1 mM) before harvest; with or without arsenite (0.5 mM, 30 min); western blot for GFP and Kapβ2
[3] = target: karyopherin β2 (Kapβ2), endogenous in rat cortical neurons (rat (endogenous in primary cortical neurons)); assay: co-IP; reverse co-IP: Kapβ2 antibody cross-linked to magnetic beads (double volume of beads); lysates of rat cortical neurons transduced with GR50; with or without arsenite; western blot

| Molecule | binding [1] | binding [2] | binding [3] |
| --- | --- | --- | --- |
| karyopherin β2 (Kapβ2), endogenous in rat cortical neurons | binds | binds | – |
| B1 | – | – | binds |

Results are given in words; binding and its absence hold for the method and conditions named. In cells and extracts the contact can be indirect. A result given as binding can be weak or reduced; the word gives no strength. Where a sequence is shown, tags or fusion partners need not be part of it.
